Record: PubChem BioAssay AID493246 (Drosophila RNAi Screening Center, 2011)
Aim: 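Genes fly cells need to grow and stay alive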 (primary screen). Cell system: Drosophila Kc and S2R+ cells. Knock-down reagent: long dsRNA against Drosophila genes. Measurement: 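Cell number per well after knock-down, printed as raw plate values; calls were based on per-plate z-scores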. Scale: Kc cell number and S2R+ cell number: higher = more cells remaining. Rule for the call: 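Active when the per-plate z-score of cell number is 3 or more in the direction of fewer cells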.
The screen tested about 21,000 reagents; below is a random part of those that have a named target and a result. Over the whole deposit, 429 (2%) were called active. 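Values are raw and not normalised between plates; calls rest on per-plate z-scores that were not deposited.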 A plus sign joins genes that one reagent is predicted to hit. Reagent sequences are not shown. Not given: the amount of reagent, the time to read-out.

gene	DRSC id	Kc cell number, rep 1	Kc cell number, rep 2	S2R+ cell number, rep 1	S2R+ cell number, rep 2	outcome
Ugt35E2 (UDP-glycosyltransferase family 35 member E2)	DRSC16083	1.59e6	1.49e6	1.26e6	1.36e6	inactive
Mst33A	DRSC03371	1.68e6	1.73e6	1.33e6	1.55e6	inactive
CG6621	DRSC16076	1.53e6	1.62e6	1.35e6	1.42e6	inactive
Acsf2 (Acyl-CoA synthetase family member 2)	DRSC02172	1.76e6	1.85e6	1.31e6	1.45e6	inactive
CG4733	DRSC15634	1.17e6	1.27e6	1.12e6	1.20e6	inactive
Efa6 (Exchange factor for Arf 6)	DRSC13569	1.43e6	1.45e6	1.03e6	1.13e6	inactive
Efa6 (Exchange factor for Arf 6)	DRSC15312	1.52e6	1.53e6	7.80e5	8.99e5	inactive
Efa6 (Exchange factor for Arf 6)	DRSC16141	1.58e6	1.52e6	9.04e5	1.06e6	inactive
fd59A (forkhead domain 59A)	DRSC04685	1.32e6	1.35e6	1.08e6	1.18e6	inactive
Nepl8 (Neprilysin-like 8)	DRSC02759	1.65e6	1.72e6	1.30e6	1.48e6	inactive
CG13404	DRSC19536	1.60e6	1.65e6	1.13e6	1.25e6	inactive
CG10909	DRSC14282	1.80e6	1.98e6	1.36e6	1.51e6	inactive
CG15144	DRSC02445	1.50e6	1.56e6	1.24e6	1.36e6	inactive
Jheh2 (Juvenile hormone epoxide hydrolase 2)	DRSC06530	1.75e6	1.69e6	1.23e6	1.38e6	inactive
Gart (GART trifunctional enzyme)	DRSC03481	1.47e6	1.33e6	1.16e6	1.28e6	inactive
ato (atonal)	DRSC16904	1.85e6	2.04e6	1.24e6	1.66e6	inactive
alien + CG17906	DRSC02641	1.51e6	1.62e6	1.21e6	1.35e6	inactive
Yp2 (Yolk protein 2)	DRSC18732	5.56e5		8.34e5		inactive
CG13121 (retired record)	DRSC02217	1.63e6	1.66e6	1.28e6	1.47e6	inactive
tsl (torso-like)	DRSC17090	1.51e6	1.53e6	1.18e6	1.25e6	inactive
HERC2 (HECT and RLD domain containing protein 2)	DRSC20566	1.45e6	1.51e6	1.02e6	1.13e6	inactive
CG42507 + Trl	DRSC09325	1.40e6	1.52e6	1.11e6	1.22e6	inactive
CG42507 + Trl	DRSC11308	3.03e5	5.18e5	4.23e5	5.20e5	active
CG4362	DRSC15567	1.53e6	1.51e6	1.09e6	1.20e6	inactive
Trim9 (Tripartite motif containing 9)	DRSC02242	1.60e6	1.68e6	1.39e6	1.62e6	inactive
Cpr66Cb (Cuticular protein 66Cb)	DRSC10769	1.58e6	1.47e6	9.93e5	1.15e6	inactive
CG40245 (retired record)	DRSC21012	1.22e6	1.56e6	1.17e6	1.19e6	inactive
CG13955	DRSC06443	1.79e6	1.96e6	1.31e6	1.47e6	inactive
plx (pollux)	DRSC12260	1.44e6	1.60e6	1.23e6	1.34e6	inactive
plx (pollux)	DRSC12385	1.29e6	1.28e6	1.03e6	1.15e6	inactive
Clbn (Caliban)	DRSC14404	1.55e6	1.63e6	9.93e5	1.13e6	inactive
CG14331	DRSC14810	1.20e6	1.25e6	1.13e6	1.24e6	inactive
l(1)G0469 (lethal (1) G0469)	DRSC19412	6.31e5		9.24e5		inactive
l(1)G0469 (lethal (1) G0469)	DRSC19462	1.46e6	1.49e6	1.05e6	1.09e6	inactive
HtrA2 (HTRA2-related serine protease)	DRSC16425	1.34e6	1.36e6	1.08e6	1.18e6	inactive
CG9380	DRSC04549	1.65e6	1.67e6	1.36e6	1.35e6	inactive
TwdlT (TweedleT)	DRSC16677	1.46e6	1.49e6	1.01e6	1.12e6	inactive
CG14257	DRSC14752	1.44e6	1.47e6	9.70e5	1.09e6	inactive
CG3597	DRSC00617	1.44e6	1.50e6	1.03e6	1.15e6	inactive
Had1 (beta Hydroxy acid dehydrogenase 1)	DRSC20216	1.52e6	1.55e6	1.15e6	1.28e6	inactive
vih (vihar)	DRSC09778	1.20e6	1.37e6	7.05e5	8.06e5	active
CG32269 + CG32270	DRSC08195	1.51e6	1.26e6	9.89e5	1.22e6	inactive
CG31189	DRSC16198	1.19e6	1.23e6	1.13e6	1.21e6	inactive
CG4161	DRSC01930	1.45e6	1.56e6	1.16e6	1.31e6	inactive
CG14854	DRSC14978	1.27e6	1.33e6	1.16e6	1.28e6	inactive
RagC-D (Ras-related GTP binding C/D)	DRSC07239	1.60e6	1.72e6	1.13e6	1.23e6	inactive
CG32119	DRSC09248	1.33e6	1.70e6	1.01e6	1.16e6	inactive
Alp6 (Alkaline phosphatase 6)	DRSC06710	1.32e6	1.33e6	1.14e6	1.08e6	inactive
Jasper (JIL-1 anchoring and stabilizing protein)	DRSC16352	5.35e5		8.48e5		inactive
CG10307	DRSC04057	9.92e5	1.14e6	8.31e5	7.30e5	inactive
NHP2	DRSC11229	1.28e6	1.45e6	1.20e6	1.32e6	inactive
CG15712	DRSC06583	1.58e6	1.57e6	1.18e6	1.31e6	inactive
Cyp18a1 (Cytochrome P450 18a1)	DRSC20235	1.50e6	1.57e6	1.01e6	1.15e6	inactive
CG8924	DRSC20122	3.83e5		6.57e5		inactive
CG13716	DRSC08325	1.73e6	1.70e6	1.07e6	1.16e6	inactive
Lsp1beta (Larval serum protein 1 beta)	DRSC00757	1.25e6	1.30e6	8.36e5	9.70e5	inactive
Calr (Calreticulin)	DRSC16614	1.47e6	1.36e6	1.11e6	1.21e6	inactive
haf (hattifattener)	DRSC00381	1.56e6	1.54e6	1.12e6	1.31e6	inactive
Gmppb (GDP-mannose pyrophosphorylase B)	DRSC12169	1.62e6	1.60e6	1.18e6	1.24e6	inactive
